{
  "source": "paper doi:10.1101/2025.02.17.638697",
  "binders": {"B1": {"name": "Cnb1 (calcineurin regulatory subunit B) (protein, UniProt P0CM54 1-175)", "chain": "MGAAESSMFNSLEKNSNFSGPELMRLKKRFMKLDKDGSGSIDKDEFLQIPQIANNPLAHRMIAIFDEDGSGTVDFQEFVGGLSAFSSKGGRDEKLRFAFKVYDMDRDGYISNGELYLVLKQMVGNNLKDQQLQQIVDKTIMEADKDGDGKLSFEEFTQMVASTDIVKQMTLEDLF"}},
  "biological_target": "Cna1-GFP fusion protein (calcineurin catalytic subunit A) (C. deneoformans) (UniProt Q9Y879)",
  "assay": "affinity purification with mass spectrometry",
  "note": "Results are given in words; binding and its absence hold for the method and conditions named. Binding seen in cells or lysates may run through a third protein. Here binding means that the protein was enriched with, or labelled near, the bait; the list need not be complete.",
  "data": [
    {"binder": "B1", "values": [
      {"measurement": "binding", "value": "binds"}
    ]}
  ]
}
